This is an account of results in PMC10296906, “GPCR Binding and JNK3 Activation by Arrestin-3 Have Different Structural Requirements” (Cells, 2023).

The chains behind the UniProt entries cited, without tags or fusion partners.
UniProt P08172: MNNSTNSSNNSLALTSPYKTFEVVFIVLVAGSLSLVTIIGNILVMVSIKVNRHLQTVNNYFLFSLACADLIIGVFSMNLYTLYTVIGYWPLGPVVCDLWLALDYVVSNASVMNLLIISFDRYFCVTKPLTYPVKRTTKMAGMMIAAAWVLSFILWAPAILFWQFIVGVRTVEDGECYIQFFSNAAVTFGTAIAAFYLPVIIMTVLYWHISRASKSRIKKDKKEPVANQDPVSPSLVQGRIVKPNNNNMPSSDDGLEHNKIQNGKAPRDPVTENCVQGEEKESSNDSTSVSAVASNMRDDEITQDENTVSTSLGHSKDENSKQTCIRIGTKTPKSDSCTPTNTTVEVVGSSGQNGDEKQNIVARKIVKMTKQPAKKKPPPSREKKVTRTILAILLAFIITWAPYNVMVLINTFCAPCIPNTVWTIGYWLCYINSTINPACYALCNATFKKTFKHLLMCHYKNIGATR

No constants are given. Whether binding was seen depends on the method and setting. In cells and extracts the contact can be indirect. Binding can be weak; no strength is given.

The target of the assay is LgBiT-tagged human M2 muscarinic acetylcholine receptor (human) (UniProt P08172). As to the kind of experiment: split reporter; NanoBiT complementation in live HEK293 arrestin-2/3 KO cells: SmBiT-arrestin-3 and receptor-LgBiT co-expressed; luminescence read 20 min with nanoGlo substrate, then agonist added (10 µM isoproterenol for β2AR, 10 µM carbachol for M2R) and read 40 min; signal normalized to the basal signal without agonist.
As to “SmBiT-tagged arrestin-3 R170E + K295A (from UniProt P32120-2)”, the binding result is listed as “binds”.

In the case of “SmBiT-tagged arrestin-3 D291R (from UniProt P32120-2)”, the binding entry is recorded as “binds”.

As for “SmBiT-tagged arrestin-3 R170E (from UniProt P32120-2)”, the binding entry was “binds”.

As to “SmBiT-tagged arrestin-3 D291R + K295E (from UniProt P32120-2)”, the binding result is “binds”.

For the substance “SmBiT-tagged arrestin-3 D291R + K295A (from UniProt P32120-2)”, the binding result was “binds”.

For the substance “SmBiT-tagged arrestin-3 3A + K295A (from UniProt P32120-2)”, the binding result is “binds”.

For “SmBiT-tagged arrestin-3 3A + K295E (from UniProt P32120-2)”, the binding entry is listed as “binds”.

On to “SmBiT-tagged arrestin-3 R170E + K295E (from UniProt P32120-2)”, for which the binding result is listed as “binds”.
